Data taken from PMC7862700.
The entries are a selection whose mix differs from that of the whole data set. At the low end of the ranking, values are background and their order means little.

Experiments:
Experiment in all cases: DAPPL (digital affinity profiling via proximity ligation, sequencing)
Conditions in all cases: 10 mM Tris-HCl pH 7.5, 50 mM NaCl, 1 mM DTT, 4% glycerol, room temperature, 30 min; GST-TFs on glutathione beads, 16-mer random dsDNA library, 0.1% …; high values mean tight binding; double strand, one strand shown; scale: fold enrichment (6-mer frequency, TF over GST control)
[1] = target: T1, ELK1 (UniProt P19419)
T1 sequence: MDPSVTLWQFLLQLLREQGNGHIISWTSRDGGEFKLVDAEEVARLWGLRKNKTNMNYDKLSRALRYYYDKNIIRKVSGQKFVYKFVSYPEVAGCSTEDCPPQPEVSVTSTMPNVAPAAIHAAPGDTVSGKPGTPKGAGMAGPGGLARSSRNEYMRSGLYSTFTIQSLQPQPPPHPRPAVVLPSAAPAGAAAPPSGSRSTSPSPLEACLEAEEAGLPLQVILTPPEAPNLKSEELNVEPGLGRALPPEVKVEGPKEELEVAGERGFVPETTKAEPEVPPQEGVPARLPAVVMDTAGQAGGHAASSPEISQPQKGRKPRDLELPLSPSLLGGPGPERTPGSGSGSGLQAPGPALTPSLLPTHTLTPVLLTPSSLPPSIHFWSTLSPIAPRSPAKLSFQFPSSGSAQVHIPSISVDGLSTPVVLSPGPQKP

[2] = target: T2, ELK3 (UniProt P41970)
T2 sequence: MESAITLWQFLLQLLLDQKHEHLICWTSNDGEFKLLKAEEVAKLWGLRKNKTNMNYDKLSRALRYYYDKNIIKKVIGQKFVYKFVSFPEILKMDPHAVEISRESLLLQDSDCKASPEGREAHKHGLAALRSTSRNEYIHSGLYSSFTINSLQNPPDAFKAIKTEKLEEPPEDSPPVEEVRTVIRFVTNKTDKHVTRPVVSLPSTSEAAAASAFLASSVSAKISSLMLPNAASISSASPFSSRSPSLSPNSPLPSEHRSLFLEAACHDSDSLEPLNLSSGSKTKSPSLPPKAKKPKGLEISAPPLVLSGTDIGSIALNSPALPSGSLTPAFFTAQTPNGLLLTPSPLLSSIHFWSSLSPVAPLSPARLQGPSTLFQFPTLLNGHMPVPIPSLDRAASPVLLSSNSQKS

[3] = target: T3, SPIC (UniProt Q8N5J4)
T3 sequence: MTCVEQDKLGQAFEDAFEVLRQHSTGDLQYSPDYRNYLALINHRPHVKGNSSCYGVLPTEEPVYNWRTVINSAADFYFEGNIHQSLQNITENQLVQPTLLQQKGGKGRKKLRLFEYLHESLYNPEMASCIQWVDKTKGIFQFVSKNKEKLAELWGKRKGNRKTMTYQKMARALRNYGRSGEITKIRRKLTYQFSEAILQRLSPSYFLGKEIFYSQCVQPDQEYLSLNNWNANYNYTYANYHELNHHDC

[4] = target: T4, ETS2 (UniProt P15036)
T4 sequence: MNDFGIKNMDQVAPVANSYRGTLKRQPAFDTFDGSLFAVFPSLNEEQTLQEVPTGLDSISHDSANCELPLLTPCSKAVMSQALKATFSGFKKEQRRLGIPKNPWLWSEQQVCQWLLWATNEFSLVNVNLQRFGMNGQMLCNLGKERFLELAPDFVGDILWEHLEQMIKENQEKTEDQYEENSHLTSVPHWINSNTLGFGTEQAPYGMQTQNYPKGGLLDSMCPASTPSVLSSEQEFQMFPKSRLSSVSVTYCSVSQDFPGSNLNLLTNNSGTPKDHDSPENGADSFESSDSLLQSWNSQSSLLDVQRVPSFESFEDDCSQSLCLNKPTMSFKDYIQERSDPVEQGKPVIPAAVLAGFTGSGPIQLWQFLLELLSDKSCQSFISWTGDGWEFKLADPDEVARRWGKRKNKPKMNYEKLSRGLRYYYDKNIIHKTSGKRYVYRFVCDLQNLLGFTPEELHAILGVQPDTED

[5] = target: T5, ETV3 (UniProt P41162-2)
T5 sequence: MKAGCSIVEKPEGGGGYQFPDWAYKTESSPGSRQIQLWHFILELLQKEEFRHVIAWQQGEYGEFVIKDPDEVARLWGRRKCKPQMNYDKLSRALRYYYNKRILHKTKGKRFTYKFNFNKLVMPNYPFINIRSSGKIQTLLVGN

Row | Sequence | binding signal [1] | binding signal [2] | binding signal [3] | binding signal [4] | binding signal [5]
1 | GAGAGC | 0.353 | 0.374 | 0.379 | 0.318 | 0.378
2 | CTGGGA | 0.779 | 0.858 | 0.814 | 0.747 | 0.806
3 | ACGGCG | 0.827 | 0.806 | 0.745 | 0.786 | 0.889
4 | GCGGAG | 0.265 | 0.293 | 0.257 | 0.25 | 0.276
5 | CCCGTG | 0.527 | 0.549 | 0.438 | 0.514 | 0.576
6 | CCAGAC | 0.672 | 0.729 | 0.625 | 0.676 | 0.652
7 | TCGGGA | 0.402 | 0.455 | 0.384 | 0.38 | 0.39
8 | CCAGGG | 0.579 | 0.585 | 0.536 | 0.593 | 0.522
9 | GGCATG | 0.882 | 0.694 | 0.954 | 0.846 | 0.796
10 | CCAGTC | 0.263 | 0.245 | 0.281 | 0.256 | 0.257
11 | GTGCCA | 0.799 | 0.833 | 0.92 | 0.766 | 0.802
12 | GACAGT | 0.466 | 0.494 | 0.468 | 0.448 | 0.445
13 | GCATGG | 0.885 | 0.892 | 0.886 | 0.863 | 0.86
14 | TTGGAG | 0.533 | 0.57 | 0.533 | 0.502 | 0.519
15 | CGCAGT | 0.751 | 0.762 | 0.701 | 0.737 | 0.75
16 | GGGTAA | 0.771 | 0.876 | 0.75 | 0.872 | 0.769
17 | GGGGTC | 0.628 | 0.694 | 0.654 | 0.684 | 0.634
18 | TAGTGA | 0.563 | 0.505 | 0.498 | 0.581 | 0.569
19 | GCGTGA | 0.269 | 0.276 | 0.247 | 0.263 | 0.272
20 | CAGGTT | 0.719 | 0.737 | 0.708 | 0.698 | 0.722

From no. 4 up to 5, copied from above:
Row | Sequence | binding signal [1] | binding signal [2] | binding signal [3] | binding signal [4] | binding signal [5]
4 | GCGGAG | 0.265 | 0.293 | 0.257 | 0.25 | 0.276
5 | CCCGTG | 0.527 | 0.549 | 0.438 | 0.514 | 0.576
